Results: the supplement of paper PMC3334620
Whole data set: some 33,000 sequences, median “E-score (-0.5 to 0.5)” near -0.0014, cut for the highest 2% near 0.25. The list shows a part of the results.

These sequences were tested against T1, Cad1 (UniProt P24813) (assay: PBM E-score (8-mer binding enrichment) (E-score (-0.5 to 0.5)); higher = stronger / more preferred TF binding). Details: protein concentration: 100 nM; construct: GST-full length.
T1 sequence: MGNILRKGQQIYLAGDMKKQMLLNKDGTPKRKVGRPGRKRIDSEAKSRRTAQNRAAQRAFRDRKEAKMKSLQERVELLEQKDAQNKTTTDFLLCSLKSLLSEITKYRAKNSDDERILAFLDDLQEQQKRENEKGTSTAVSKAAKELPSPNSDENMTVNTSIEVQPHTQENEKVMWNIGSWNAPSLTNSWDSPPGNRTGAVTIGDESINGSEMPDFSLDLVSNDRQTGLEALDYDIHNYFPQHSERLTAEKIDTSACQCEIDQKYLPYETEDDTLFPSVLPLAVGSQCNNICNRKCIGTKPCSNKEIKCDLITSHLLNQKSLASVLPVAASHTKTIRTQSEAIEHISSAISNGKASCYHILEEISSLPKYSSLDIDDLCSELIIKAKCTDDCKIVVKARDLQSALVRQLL
Protocol: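 Universal 'all 10-mer' protein binding microarrays (Agilent AMADID 015681) probed with GST-tagged S. cerevisiae TFs (full-length or DBD) made by in vitro transcription/translation (PURExpress), about 100-200 nM. Bound TF was detected with fluorescent anti-GST. Each ungapped 8-mer (which stands for itself and its reverse complement) is scored by the PBM enrichment score (E-score), a modified Wilcoxon-Mann-Whitney statistic from -0.5 to +0.5, computed with the Universal PBM Analysis Suite. Scale: above 0.35 generally sequence-specific binding.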

Compared with CCCCGCGC, GCCCGGGA is higher in “PBM E-score” value: -0.194 for the first, 0.0735 for the second.

Going from ACCACCCT to CTATGGGC, the “PBM E-score” value rises from -0.126 to -0.0219.

First: ATCGGCAC
Second: GGCCTTCA
The “PBM E-score” value of the first is higher: 0.154 for the first, 0.0667 for the second.

Going from AAATGGAG to CACGTATG, the “PBM E-score” value falls from 0.137 to -0.0924.

First: CGGAATCA
Second: GCTTGTCA
The “PBM E-score” value of the first is higher: 0.237 for the first, 0.13 for the second.

Going from CTCCCACA to CGTACCGC, the “PBM E-score” value rises from -0.237 to 0.0948.

Compared with ACACGGGA, CAATTTGG is higher in “PBM E-score” value: -0.0408 for the first, 0.0507 for the second.

First: AACCGACA
Second: GCCTCCCA
The “PBM E-score” value of the first is higher: 0.156 for the first, -0.32 for the second.

Going from GAACGACA to GGCAGGAC, the “PBM E-score” value falls from 0.0743 to -0.024.

Compared with CATAATGC, CACTGTAC is lower in “PBM E-score” value: -0.0245 for the first, -0.157 for the second.

Compared with ACGTTGCT, GCACCGAC is higher in “PBM E-score” value: 0.0846 for the first, 0.0884 for the second.

Going from GATTTACA to AGTTTTTG, the “PBM E-score” value falls from 0.139 to 0.0939.

Going from AGATAACG to GGATTAGA, the “PBM E-score” value falls from 0.189 to -0.00582.

First: CACTACGA
Second: GAAGCTGA
The “PBM E-score” value of the first is lower: -0.00465 for the first, 0.152 for the second.

Going from CATTTAAA to CCACCGGG, the “PBM E-score” value falls from 0.0964 to -0.311.

Compared with CCGGTTTA, AGGCCAGA is higher in “PBM E-score” value: -0.0764 for the first, -0.0194 for the second.

Going from GTCATAAC to CATCACTA, the “PBM E-score” value falls from 0.0715 to 0.0442.

Going from AAAAGTGC to GAATCATA, the “PBM E-score” value rises from -0.0275 to 0.0335.

Going from CTAGACGC to CTAAAGAG, the “PBM E-score” value rises from -0.138 to -0.136.

First: AACCCGCG
Second: CATAGCAC
The “PBM E-score” value of the first is higher: 0.154 for the first, -0.0299 for the second.

Going from AACATGTG to CGGTGACA, the “PBM E-score” value falls from 0.207 to -0.0436.

First: CCCCGACG
Second: CTAAACAG
The “PBM E-score” value of the first is lower: -0.0231 for the first, -0.00653 for the second.

First: CCGTACCA
Second: ATTACTTA
The “PBM E-score” value of the first is lower: 0.134 for the first, 0.237 for the second.

Going from CTTATTTC to CGTTACCA, the “PBM E-score” value falls from 0.304 to 0.0326.

First: CGCCTTAC
Second: GAAAAGAC
The “PBM E-score” value of the first is lower: -0.024 for the first, 0.114 for the second.

Going from TCTGCTCA to CAAAAGGG, the “PBM E-score” value falls from 0.0798 to -0.144.

First: GAAAAAAA
Second: CCGGTTTC
The “PBM E-score” value of the first is higher: 0.215 for the first, 0.0734 for the second.

First: AGGCCCTG
Second: CTAAGACA
The “PBM E-score” value of the first is lower: -0.124 for the first, 0.0189 for the second.

First: GACAAATC
Second: GACATTCA
The “PBM E-score” value of the first is higher: 0.306 for the first, 0.0718 for the second.

Going from AGCAGTCC to CGCGCTGA, the “PBM E-score” value rises from -0.195 to 0.219.

First: ATAGATAC
Second: CCGTATGA
The “PBM E-score” value of the first is higher: 0.0239 for the first, 0.0131 for the second.

First: GTACACGA
Second: TTACTGAA
The “PBM E-score” value of the first is lower: 0.0697 for the first, 0.209 for the second.

First: AAGCTCTA
Second: ATCACGGG
The “PBM E-score” value of the first is higher: 0.0386 for the first, -0.16 for the second.

First: CGACGGCA
Second: GGTAATTA
The “PBM E-score” value of the first is lower: -0.158 for the first, 0.186 for the second.

Compared with GACATGAC, CCGAATTC is higher in “PBM E-score” value: -0.175 for the first, 0.181 for the second.

Going from GGAAGTAA to CGCTGGAA, the “PBM E-score” value falls from -6e-05 to -0.0381.

Compared with GCGTGACA, CTGCTATA is lower in “PBM E-score” value: 0.1 for the first, 0.048 for the second.

First: CCTAAGCA
Second: CGGTTTTA
The “PBM E-score” value of the first is higher: 0.0423 for the first, -0.00607 for the second.

First: ACCATGTC
Second: CATTCCCC
The “PBM E-score” value of the first is lower: -0.056 for the first, -0.0209 for the second.

Compared with CAATCGAG, GCGCTGCC is lower in “PBM E-score” value: -0.0756 for the first, -0.124 for the second.

Going from GAAATGCA to CCCAATTC, the “PBM E-score” value rises from 0.0836 to 0.211.

Compared with AGTAAGGA, TAACCCAA is higher in “PBM E-score” value: -0.0549 for the first, 0.00706 for the second.

First: CGTCGAGC
Second: TCATGGCA
The “PBM E-score” value of the first is lower: 0.0029 for the first, 0.0627 for the second.

Going from GGCAGGGA to ACGCGACC, the “PBM E-score” value rises from -0.0316 to 0.0178.

Compared with CAATCGCG, TATGCGCA is lower in “PBM E-score” value: 0.101 for the first, 0.0953 for the second.

Going from AAGGTAAG to GTGACTTA, the “PBM E-score” value rises from -0.104 to 0.1.

Going from ACGCCTGA to CATTTGGC, the “PBM E-score” value falls from 0.173 to 0.0605.

First: CGCAAGCC
Second: ACTTTCCT
The “PBM E-score” value of the first is higher: 0.0392 for the first, -0.143 for the second.

Compared with GACGGCAA, ATGACTTC is lower in “PBM E-score” value: 0.153 for the first, 0.00264 for the second.

First: GACCGAAC
Second: ATGAGACA
The “PBM E-score” value of the first is lower: -0.00847 for the first, 0.0645 for the second.

First: GCATCGCC
Second: AGTGCGTG
The “PBM E-score” value of the first is lower: -0.0897 for the first, -0.00204 for the second.

First: ACACGTCG
Second: GAGTGGCC
The “PBM E-score” value of the first is lower: -0.121 for the first, -0.088 for the second.

First: AATGGTTC
Second: GGCAAAGA
The “PBM E-score” value of the first is higher: 0.149 for the first, 0.0959 for the second.

Compared with CCTGCGTA, AACTGTTA is higher in “PBM E-score” value: -0.165 for the first, 0.0596 for the second.

Compared with AAGGTTAT, AACCGAGT is higher in “PBM E-score” value: -0.111 for the first, -0.0245 for the second.
